# Source: PubChem BioAssay AID2685 (National Center for Advancing Translational Sciences (NCATS), 2010)
# Screen size: about 320,000 compounds; about 2,100 (0.66%) were called active. Inconclusive results, whose numbers are uncertain, are shown with a selection of clear calls. Calls come from the whole dose curve; as a rule, active = well fitted inhibition curve with a large enough effect in the signal ratio, with a control signal flat (not every such curve was filed as active); inconclusive = small, poorly fitted or top-dose-only effect, or effect the other way, or a change in a side signal; inactive = flat fitted curve, though single readings scatter; the % refers to the signal ratio. A potency beside an inconclusive call is a rough fit, not a confirmed value.
# Experiment: qHTS Assay for Lipid Storage Modulators in Drosophila S3 Cells
# Details: BODIPY lipid droplet fluorescence, 18-24 h, cells fed with added oleic acid; lipid storage change, negative = inhibition: at 46.1 µM (top of the series) unless noted
# Outline: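 Laser-scanning cytometry quantifies lipid droplet accumulation (500–530 nm total intensity; droplet/cell object ratio) in oleic acid-fed (400 uM added) Drosophila S3 cells treated with a concentration series. 20 uM Triacsin C defined 100% inhibition.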
# % is set by controls: 0 for no effect and ±100 for the full control effect; potency is the fitted concentration of half-maximal effect.
Compound,"lipid storage change, negative = inhibition",Potency
COc1ccc(N2CCN(C(=O)C3CCCN(S(=O)(=O)c4c(C)noc4C)C3)CC2)cc1 (configuration not stated),inconclusive: -20.4%,–
COc1ccc(NC(=O)C(OC(=O)c2cnccn2)c2ccccc2)cc1Cl (configuration not stated),–,"inconclusive: 29.1 µM [activator, single point]"
CC1CCc2c(sc3nc(CSc4n[nH]c(N)n4)[nH]c(=O)c23)C1 (configuration not stated),–,"inconclusive: 29.1 µM [activator, single point]"
CCSc1nnc(NC(=O)CSC2=NN3CCCC(=O)N=C3S2)s1,inconclusive: 26.1% [at 9.22 µM],–
Cc1nnc(SCC(=O)Nc2nsc(-c3ccccc3)n2)s1,–,"inconclusive: 0.184 µM [activator, full curve, poor fit]"
O=c1oc2cc([N+](=O)[O-])ccc2nc1/C=C(\O)c1cccc(Br)c1,inconclusive: -20.7%,–
COc1ccc(-c2noc(-c3cc4ccccc4oc3=O)n2)cc1,inconclusive: -0.282%,–
Cc1cc(C(=O)N/N=C/c2ccc(Cl)c([N+](=O)[O-])c2)c(C)n1-c1ccc(F)cc1,inactive: 14.7%,–
O=C1C(=O)N(CCCc2ccccc2)c2ccccc21,inconclusive: -1.04%,–
CC(=O)N1CCN(c2ccc(NC(=O)c3ccc4ccccc4c3)cc2)CC1,–,"inconclusive: 4.11 µM [falling, single point]"
Cc1ccc(C)n1-c1ccc(C(=O)NN=C2CCCC2)cc1,–,"inconclusive: 0.103 µM [falling, single point]"
N#C/C(=C\c1cccs1)C(=O)Nc1ccccn1,inactive: -4.46%,–
c1ccc(CN=C2NN=C(c3cc4ccccc4o3)CS2)cc1,–,"inconclusive: 2.31 µM [activator, partial curve]"
Cc1nc(-c2ccc(Cl)cc2)sc1C1(C)CC(c2ccc(F)cc2)=NO1 (configuration not stated),–,"inconclusive: 16.4 µM [activator, single point]"
CC(C)(C)c1ccc(Cn2nnc3c(=O)[nH]c(C4CCN(C(=O)Cc5cccs5)CC4)nc32)cc1,–,"inconclusive: 32.6 µM [cytotoxic, single point]"
CC(C)OC(=O)CCC/C=C\C[C@@H]1[C@@H](CC[C@@H](O)CCc2ccccc2)[C@H](O)C[C@@H]1O,inconclusive: -8.14%,–
O=S(=O)(NC1CC1)c1ccc(F)c(F)c1,inconclusive: 9.13%,–
O=C(CSc1nnc(Nc2ccccc2)s1)Nc1ccc(S(=O)(=O)N2CCOCC2)cc1,–,"inconclusive: 29.1 µM [activator, single point]"
Cn1ccsc1=NC(=O)c1ccc(S(C)(=O)=O)cc1,–,"inconclusive: 8.2 µM [activator, partial curve]"

Compound,"lipid storage change, negative = inhibition",Potency
Cc1ccc2cc(CN(Cc3ccccc3)Cc3nnnn3C3CCCC3)c(=O)[nH]c2c1,–,"inconclusive: 6.51 µM [rising, single point]"
Cc1ccc(C)c2nc3sc(C(=O)O)cc3cc12,inconclusive: 4.82%,–
CCN(CC(=O)NCc1ccc(Cl)cc1)C(=O)CN1C(=O)NC(C)(c2ccccc2)C1=O (configuration not stated),–,"inconclusive: 13 µM [falling, partial curve, poor fit]"
O=C(Cc1ccc(Cl)cc1)NNc1c(F)c(F)cc(F)c1F,inconclusive: 29.1%,–
CCN(CC(=O)NC1CCS(=O)(=O)C1)S(=O)(=O)c1ccc2ccccc2c1 (configuration not stated),inconclusive: 16.4%,–
CC1(C)Cc2c(sc(NC(=O)COc3ccccc3)c2C#N)C(C)(C)N1,inconclusive: -13.2%,–
O=C(Cc1cccs1)N1CCN=C1SCc1ccc(Br)cc1,inconclusive: 5.43%,–
Cc1cc(C)nc(SCC(=O)NNC(=O)c2cccs2)n1,inconclusive: 12.4%,–
Cc1cc(C)c2cc(CN(CCO)C(=O)Nc3ccc(Cl)cc3)c(=O)[nH]c2c1,inconclusive: 85.3%,–
CCN(CC(=O)Nc1c(F)cccc1F)C(=O)CNC(=O)C1CCCCC1,inconclusive,–
CCS(=O)(=O)N1CCCC(C(=O)NCCCN2CCCC2=O)C1 (configuration not stated),inconclusive: -30.4%,–
O=C(Oc1ccc(/C=N/NC(=O)c2ccco2)cc1)c1ccccc1,inconclusive: 7.2%,–
c1cncc(-c2nc(-c3ccc4c(c3)OCCO4)cs2)c1,inconclusive: -27.7%,–
Cc1nccn1CCC1CCCCN1C(=O)CCc1nnc(-c2ccsc2)o1 (configuration not stated),inconclusive: 7.22%,–
C=C(C)C(=O)Nc1cccc(C2=NOC3(C2)C[C@H](C(N)=O)N(C(=O)CC#N)C3)c1 (some centres not stated),inconclusive: 11%,–
O=C(Nc1cccc(NC(=O)c2cccc(Cl)c2)c1)c1cccnc1,inconclusive: 3.69%,–
Cc1cc(C)c(NC(=O)CSc2nnc(-c3ccco3)n2N)c(C)c1,–,"inconclusive: 0.651 µM [activator, partial curve]"
COCCCNC(=S)N(CCCO)Cc1cc2cc3c(cc2[nH]c1=O)OCCO3,–,"inconclusive: 32.6 µM [activator, single point]"

# Single values from the entries so far.
# `O=C(Nc1cccc(NC(=O)c2cccc(Cl)c2)c1)c1cccnc1` | lipid storage change, negative = inhibition: inconclusive: 3.69%
# `Cc1ccc2cc(CN(Cc3ccccc3)Cc3nnnn3C3CCCC3)c(=O)[nH]c2c1` | Potency: inconclusive: 6.51 µM [rising, single point]
